According to US9764046B2, “Labeling composition for intraocular tissue, labeling method of intraocular tissue, and screening method” (CANON KABUSHIKI KAISHA, priority 2008, dated 2017):
The name of at least one read-out is uncertain.

Test system: intraocular tissue (retinal tissue incl. photoreceptor cell layer, vitreous body) of Zebrafish 7-day-old embryo
Assay: Staining of intraocular tissue of Zebrafish fry by exposure to staining liquid, ocular tissue section observed by confocal microscope
Type: in vivo
Conditions: Zebrafish 7 dpf fry, 1 μg/mL, 1 hour exposure, fixed ocular section

`Nc1c(OCCOC(=O)Oc2ccccc2)cc(O)c2c1C(=O)c1ccccc1C2=O` [Compound 114] gave a Stained site of 1.
